{"source": "PubChem BioAssay AID686943 (Drosophila RNAi Screening Center, 2013)", "aim": "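Search across the genome for regulators of signalling from receptor tyrosine kinase to ERK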 (primary screen)", "cells": "Drosophila S2R+ haemocyte-like cells expressing YFP-tagged ERK (Rolled)", "reagents": "long dsRNA against Drosophila genes", "conditions": "insulin stimulation versus unstimulated cells; dose and duration not given", "read-out": "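Antibody staining for doubly phosphorylated ERK divided by ERK-YFP signal, as plate z-scores, in insulin-treated and untreated cells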", "direction": "replicate 1, z-score of dpERK with insulin and replicate 2, z-score of dpERK with insulin: higher = more active ERK per ERK-YFP after insulin", "note": "In all, the deposit lists about 23,000 reagents; shown is an unselected part of those with a known target gene and a result. 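Extra replicates exist only for a retested subset of genes; insulin dose and duration not given; both raised and lowered dpERK matter.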 A plus sign joins genes that one reagent is predicted to hit. Further read-outs or replicates are left out here. Not stated in the record: the amount of reagent, the time to read-out."}
{"gene":"Ercc1","DRSC id":"DRSC07424","replicate 1, z-score of dpERK with insulin":-1.42,"replicate 2, z-score of dpERK with insulin":-1.36}
{"gene":"cola + swif","DRSC id":"DRSC06826","replicate 1, z-score of dpERK with insulin":0.25,"replicate 2, z-score of dpERK with insulin":0.7}
{"gene":"cola + swif","DRSC id":"DRSC21965","replicate 1, z-score of dpERK with insulin":0.84,"replicate 2, z-score of dpERK with insulin":1.25}
{"gene":"Gr33a (Gustatory receptor 33a)","DRSC id":"DRSC02589","replicate 1, z-score of dpERK with insulin":0.56,"replicate 2, z-score of dpERK with insulin":0.02}
{"gene":"CG14694","DRSC id":"DRSC14917","replicate 1, z-score of dpERK with insulin":0.09,"replicate 2, z-score of dpERK with insulin":-0.05}
{"gene":"RpS15Ab + RpS15Aa","DRSC id":"DRSC06129","replicate 1, z-score of dpERK with insulin":-0.19,"replicate 2, z-score of dpERK with insulin":-1.32}
{"gene":"RpS15Ab + RpS15Aa","DRSC id":"DRSC19831","replicate 1, z-score of dpERK with insulin":1.53,"replicate 2, z-score of dpERK with insulin":-0.97}
{"gene":"CG13326","DRSC id":"DRSC06363","replicate 1, z-score of dpERK with insulin":0.47,"replicate 2, z-score of dpERK with insulin":-0.07}
{"gene":"CG32086","DRSC id":"DRSC10586","replicate 1, z-score of dpERK with insulin":0.01,"replicate 2, z-score of dpERK with insulin":0.1}
{"gene":"CG42758","DRSC id":"DRSC10021","replicate 1, z-score of dpERK with insulin":-0.68,"replicate 2, z-score of dpERK with insulin":0.62}
{"gene":"CG14369","DRSC id":"DRSC14831","replicate 1, z-score of dpERK with insulin":-0.2,"replicate 2, z-score of dpERK with insulin":0.53}
{"gene":"CG31601","DRSC id":"DRSC03678","replicate 1, z-score of dpERK with insulin":-0.37,"replicate 2, z-score of dpERK with insulin":-1.05}
{"gene":"Ada (Adenosine deaminase)","DRSC id":"DRSC14463","replicate 1, z-score of dpERK with insulin":1.52,"replicate 2, z-score of dpERK with insulin":0.8}
{"gene":"betaGlu (beta glucuronidase)","DRSC id":"DRSC15419","replicate 1, z-score of dpERK with insulin":0.51,"replicate 2, z-score of dpERK with insulin":0.24}
{"gene":"CG31659","DRSC id":"DRSC00760","replicate 1, z-score of dpERK with insulin":-0.04,"replicate 2, z-score of dpERK with insulin":0.67}
{"gene":"CG12115","DRSC id":"DRSC17811","replicate 1, z-score of dpERK with insulin":1.35,"replicate 2, z-score of dpERK with insulin":1.31}
{"gene":"Iru (Iruka)","DRSC id":"DRSC14457","replicate 1, z-score of dpERK with insulin":0.48,"replicate 2, z-score of dpERK with insulin":-0.23}
{"gene":"CG8778","DRSC id":"DRSC07264","replicate 1, z-score of dpERK with insulin":0.38,"replicate 2, z-score of dpERK with insulin":-0.31}
{"gene":"Arpc3B (Actin-related protein 2/3 complex, subunit 3B)","DRSC id":"DRSC20126","replicate 1, z-score of dpERK with insulin":0,"replicate 2, z-score of dpERK with insulin":-2.54}
{"gene":"chm (chameau)","DRSC id":"DRSC03341","replicate 1, z-score of dpERK with insulin":-0.23,"replicate 2, z-score of dpERK with insulin":-0.47}
{"gene":"CG4622","DRSC id":"DRSC04479","replicate 1, z-score of dpERK with insulin":0.37,"replicate 2, z-score of dpERK with insulin":0.31}
{"gene":"eIF3j (eukaryotic translation initiation factor 3 subunit j)","DRSC id":"DRSC06107","replicate 1, z-score of dpERK with insulin":-0.95,"replicate 2, z-score of dpERK with insulin":-0.31}
{"gene":"Spt (Spitting Image)","DRSC id":"DRSC07123","replicate 1, z-score of dpERK with insulin":0.63,"replicate 2, z-score of dpERK with insulin":0.48}
{"gene":"pll (pelle)","DRSC id":"DRSC17026","replicate 1, z-score of dpERK with insulin":0.53,"replicate 2, z-score of dpERK with insulin":0.31}
{"gene":"Kebab (Kinetochore and EB1 associated basic protein)","DRSC id":"DRSC00827","replicate 1, z-score of dpERK with insulin":0.28,"replicate 2, z-score of dpERK with insulin":0.21}
{"gene":"CG32643","DRSC id":"DRSC18962","replicate 1, z-score of dpERK with insulin":0.12,"replicate 2, z-score of dpERK with insulin":0.18}
{"gene":"CG3358","DRSC id":"DRSC04992","replicate 1, z-score of dpERK with insulin":-0.02,"replicate 2, z-score of dpERK with insulin":-0.08}
{"gene":"MTA1-like (Metastasis associated 1-like)","DRSC id":"DRSC12382","replicate 1, z-score of dpERK with insulin":-2.03,"replicate 2, z-score of dpERK with insulin":-0.44}
{"gene":"MTA1-like (Metastasis associated 1-like)","DRSC id":"DRSC22022","replicate 1, z-score of dpERK with insulin":0.32,"replicate 2, z-score of dpERK with insulin":-0.5}
{"gene":"osa","DRSC id":"DRSC17022","replicate 1, z-score of dpERK with insulin":1.81,"replicate 2, z-score of dpERK with insulin":1.05}
{"gene":"Ccp84Af","DRSC id":"DRSC12591","replicate 1, z-score of dpERK with insulin":-1.37,"replicate 2, z-score of dpERK with insulin":-1.83}

5 successive records already listed:
{"gene":"RpS15Ab + RpS15Aa","DRSC id":"DRSC06129","replicate 1, z-score of dpERK with insulin":-0.19,"replicate 2, z-score of dpERK with insulin":-1.32}
{"gene":"RpS15Ab + RpS15Aa","DRSC id":"DRSC19831","replicate 1, z-score of dpERK with insulin":1.53,"replicate 2, z-score of dpERK with insulin":-0.97}
{"gene":"CG13326","DRSC id":"DRSC06363","replicate 1, z-score of dpERK with insulin":0.47,"replicate 2, z-score of dpERK with insulin":-0.07}
{"gene":"CG32086","DRSC id":"DRSC10586","replicate 1, z-score of dpERK with insulin":0.01,"replicate 2, z-score of dpERK with insulin":0.1}
{"gene":"CG42758","DRSC id":"DRSC10021","replicate 1, z-score of dpERK with insulin":-0.68,"replicate 2, z-score of dpERK with insulin":0.62}
